Experimental data as given in article PMC5559427.
Results are given in words; binding and its absence hold for the method and conditions named. In cells and extracts the contact can be indirect. Some results given as binding are weak or reduced against the parent protein; the word gives no strength.

Chains of the proteins cited; added tags and fusions are not shown.
UniProt P47819: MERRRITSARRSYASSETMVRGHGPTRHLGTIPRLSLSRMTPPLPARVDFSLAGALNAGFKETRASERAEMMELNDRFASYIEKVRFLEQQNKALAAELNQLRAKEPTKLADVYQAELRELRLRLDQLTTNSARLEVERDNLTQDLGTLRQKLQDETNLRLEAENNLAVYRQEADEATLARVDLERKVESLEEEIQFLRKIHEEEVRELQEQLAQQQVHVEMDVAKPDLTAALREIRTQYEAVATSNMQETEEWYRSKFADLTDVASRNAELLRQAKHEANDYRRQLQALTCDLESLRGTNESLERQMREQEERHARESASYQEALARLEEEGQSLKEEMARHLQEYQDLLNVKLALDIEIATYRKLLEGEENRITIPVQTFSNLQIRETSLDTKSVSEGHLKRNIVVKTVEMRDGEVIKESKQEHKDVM
UniProt P70536: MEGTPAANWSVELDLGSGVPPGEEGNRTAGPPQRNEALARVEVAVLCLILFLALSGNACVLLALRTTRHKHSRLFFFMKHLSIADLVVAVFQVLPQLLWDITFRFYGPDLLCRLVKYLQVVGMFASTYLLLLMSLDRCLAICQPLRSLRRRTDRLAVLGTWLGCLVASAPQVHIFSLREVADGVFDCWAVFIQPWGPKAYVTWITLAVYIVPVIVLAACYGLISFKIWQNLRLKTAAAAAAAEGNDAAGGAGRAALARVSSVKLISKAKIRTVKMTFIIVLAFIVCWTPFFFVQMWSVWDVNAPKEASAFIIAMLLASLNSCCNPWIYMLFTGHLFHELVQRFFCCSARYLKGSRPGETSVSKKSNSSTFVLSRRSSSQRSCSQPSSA

Biological target: glial fibrillary acidic protein (rat (endogenous in SON of Sprague-Dawley rats)) (UniProt P47819)
Assay: co-IP; SON lysates of three rats, precleared with protein G agarose; mouse anti-GFAP overnight at 4°C, captured on protein G agarose; Western blot of OTRs; two duplicates (IP1, IP2) beside total lysis

oxytocin receptor (from UniProt P70536 1-388)
binding: binds
